Experimental findings from the supplement of paper PMC10849652 are described below.

Protein sequences, listed by entry. Tags and fused reporters are not part of them. Lines headed by an entry give the natural chain unless they say otherwise; changes in a name come on top.
UniProt P53041: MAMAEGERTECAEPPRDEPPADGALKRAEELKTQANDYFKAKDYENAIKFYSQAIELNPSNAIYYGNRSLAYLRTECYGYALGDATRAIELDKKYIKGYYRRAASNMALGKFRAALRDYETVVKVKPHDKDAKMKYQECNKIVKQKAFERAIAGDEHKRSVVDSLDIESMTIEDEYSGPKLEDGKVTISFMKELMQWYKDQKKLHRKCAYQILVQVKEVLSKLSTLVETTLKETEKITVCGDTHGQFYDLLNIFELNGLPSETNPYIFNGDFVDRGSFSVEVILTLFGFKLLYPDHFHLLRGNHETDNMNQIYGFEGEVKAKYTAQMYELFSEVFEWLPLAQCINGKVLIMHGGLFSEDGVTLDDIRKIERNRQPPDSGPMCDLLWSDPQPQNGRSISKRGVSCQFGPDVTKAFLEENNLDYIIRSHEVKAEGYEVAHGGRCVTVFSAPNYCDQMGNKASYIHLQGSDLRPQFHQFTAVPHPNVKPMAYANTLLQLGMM
UniProt P07225: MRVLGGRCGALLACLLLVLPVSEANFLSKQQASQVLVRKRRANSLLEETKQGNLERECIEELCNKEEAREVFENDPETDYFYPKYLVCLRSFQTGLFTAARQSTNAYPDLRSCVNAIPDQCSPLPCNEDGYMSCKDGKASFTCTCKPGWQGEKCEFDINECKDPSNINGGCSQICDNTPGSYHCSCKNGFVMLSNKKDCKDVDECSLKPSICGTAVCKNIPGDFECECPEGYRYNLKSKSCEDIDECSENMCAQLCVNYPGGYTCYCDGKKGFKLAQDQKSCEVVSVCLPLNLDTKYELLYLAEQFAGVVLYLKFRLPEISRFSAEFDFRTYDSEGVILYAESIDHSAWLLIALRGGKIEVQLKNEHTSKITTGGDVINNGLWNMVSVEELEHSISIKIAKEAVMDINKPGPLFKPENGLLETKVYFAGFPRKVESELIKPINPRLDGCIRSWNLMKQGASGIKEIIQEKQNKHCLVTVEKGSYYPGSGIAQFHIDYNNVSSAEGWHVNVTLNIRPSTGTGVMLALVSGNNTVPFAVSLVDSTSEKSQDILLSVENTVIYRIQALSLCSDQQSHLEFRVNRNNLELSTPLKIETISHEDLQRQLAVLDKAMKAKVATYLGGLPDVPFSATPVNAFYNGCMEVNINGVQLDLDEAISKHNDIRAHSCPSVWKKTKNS
UniProt Q13131: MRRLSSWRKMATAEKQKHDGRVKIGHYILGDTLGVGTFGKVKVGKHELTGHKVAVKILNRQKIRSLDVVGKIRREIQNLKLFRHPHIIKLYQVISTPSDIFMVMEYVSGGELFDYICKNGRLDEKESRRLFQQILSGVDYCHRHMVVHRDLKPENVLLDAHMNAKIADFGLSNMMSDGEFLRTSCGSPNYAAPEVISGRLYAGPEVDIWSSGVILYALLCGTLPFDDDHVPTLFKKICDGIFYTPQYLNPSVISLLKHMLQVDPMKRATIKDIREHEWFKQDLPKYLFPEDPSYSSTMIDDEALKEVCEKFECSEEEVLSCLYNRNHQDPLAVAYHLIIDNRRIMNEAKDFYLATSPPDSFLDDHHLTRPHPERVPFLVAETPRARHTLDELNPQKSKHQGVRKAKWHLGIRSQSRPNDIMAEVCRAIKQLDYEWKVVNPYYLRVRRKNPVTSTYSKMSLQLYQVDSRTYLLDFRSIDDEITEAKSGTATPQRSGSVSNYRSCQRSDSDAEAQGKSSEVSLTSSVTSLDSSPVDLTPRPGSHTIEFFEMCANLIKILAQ
UniProt Q9NVM4: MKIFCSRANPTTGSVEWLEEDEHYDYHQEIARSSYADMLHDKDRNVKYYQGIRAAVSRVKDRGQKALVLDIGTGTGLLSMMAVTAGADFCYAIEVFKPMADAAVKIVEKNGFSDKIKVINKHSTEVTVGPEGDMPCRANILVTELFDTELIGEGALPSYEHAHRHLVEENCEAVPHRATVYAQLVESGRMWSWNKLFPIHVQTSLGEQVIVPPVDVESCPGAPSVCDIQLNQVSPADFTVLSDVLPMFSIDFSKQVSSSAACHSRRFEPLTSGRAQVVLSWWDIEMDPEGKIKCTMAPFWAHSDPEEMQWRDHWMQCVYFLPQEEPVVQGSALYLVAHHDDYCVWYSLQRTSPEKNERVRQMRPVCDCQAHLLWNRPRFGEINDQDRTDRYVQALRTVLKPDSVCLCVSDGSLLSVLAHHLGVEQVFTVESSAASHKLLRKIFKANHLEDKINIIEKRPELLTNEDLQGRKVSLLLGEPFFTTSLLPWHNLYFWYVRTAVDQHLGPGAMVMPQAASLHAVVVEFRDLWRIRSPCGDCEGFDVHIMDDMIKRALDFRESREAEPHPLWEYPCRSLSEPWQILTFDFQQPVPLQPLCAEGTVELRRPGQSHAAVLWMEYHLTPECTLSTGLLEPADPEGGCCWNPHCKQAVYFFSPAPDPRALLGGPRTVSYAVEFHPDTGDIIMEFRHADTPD
UniProt O43447: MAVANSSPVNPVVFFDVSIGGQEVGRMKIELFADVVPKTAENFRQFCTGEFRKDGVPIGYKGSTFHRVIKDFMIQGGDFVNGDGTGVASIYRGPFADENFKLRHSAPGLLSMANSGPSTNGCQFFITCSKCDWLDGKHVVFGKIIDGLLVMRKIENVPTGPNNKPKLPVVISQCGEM
UniProt P63098, whole entry, looked up: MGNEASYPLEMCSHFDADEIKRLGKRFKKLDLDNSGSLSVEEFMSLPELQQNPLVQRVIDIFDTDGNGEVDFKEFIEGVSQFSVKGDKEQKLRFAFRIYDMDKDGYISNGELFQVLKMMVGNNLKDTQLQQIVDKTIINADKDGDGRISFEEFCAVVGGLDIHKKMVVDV

What all share (assay): log2 fold change, soluble protein after heating vs DMSO (PISA); higher = thermal stabilisation; K562 lysate, 10 uM; active = over 0.2 and 3.5 SD of the protein, either way, in both replicates (recomputed)
Compound in one experiment: CN1CC[C@H](c2c(O)cc(O)c3c(=O)cc(-c4ccccc4Cl)oc23)[C@H](O)C1 [alvocidib]
Summed up:
(§1)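 Dounce homogenisation of K562 pellets in PBS pH 7.4 with 1 mM MgCl2 produced a crude extract, used at 1 mg/mL protein. Exposure to 10 μM compound lasted 30 min, and aliquots were then heated for 3 min across 48°C-58°C, pooled and brought to 0.5% NP-40 at 4°C. The supernatant after 21,000xg for 90 min was quantified by TMTpro 16plex LC-MS/MS with channel sums equalised. Duplicate values are given as log-two fold change in thermal stability relative to solvent controls.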

Compound in the next experiment: CN1CCc2c(c3ccccc3n2Cc2ccc(C(=O)NO)cc2)C1 [Tubastatin A]
A digest of the protocol: as §1

Compound in experiment [1]: CNC(=O)C1=CC=CC=C1NC2=NC(=NC=C2Cl)NC3=C(C=C(C=C3)N4CCOCC4)OC
A digest of the protocol:
as §1

Compound in another experiment: CNC(=O)c1ccc(Nc2ncc(C(F)(F)F)c(NCc3nccnc3N(C)S(C)(=O)=O)n2)cc1 [defactinib]
Summed up:
as §1

Compound in experiment [2]: CNc1nc(-c2ccc3c(N)n[nH]c3c2)cc(N2C[C@@H](C(=O)NC3CCCCC3)CC[C@H]2C)n1
Summed up:
as §1

Compound in another experiment: COC(=O)N[C@@H](C)CNc1nccc(-c2cn(C(C)C)nc2-c2cc(Cl)cc(NS(C)(=O)=O)c2F)n1 [encorafenib]
Summed up: as §1

Compound in experiment [3]: COC(=O)[C@H](CCSC)NC(=O)C1=C(C=C(C=C1)NC[C@H](CS)N)C2=CC=CC=C2
A digest of the protocol:
as §1

Compound in another experiment: COc1cc(Nc2ncc3c(n2)-c2ccc(Cl)cc2C(c2c(F)cccc2OC)=NC3)ccc1C(=O)O [alisertib]
A digest of the protocol:
as §1

Compound in experiment [4]: COc1cc2nc(-c3cc(F)ccc3O)nc(N[C@@H]3CNC[C@H]3C(C)(C)O)c2cc1OC
A digest of the protocol:
as §1

Compound in a further experiment: COc1cc2ncnc(Nc3ccc(F)c(Cl)c3)c2cc1OCCCN1CCOCC1 [gefitinib]
A digest of the protocol: as §1

Compound in another experiment: CS(=O)(=O)CCNCc1ccc(-c2ccc3ncnc(Nc4ccc(OCc5cccc(F)c5)c(Cl)c4)c3c2)o1 [lapatinib]
A digest of the protocol: as §1

Compound in the next experiment: CS(=O)(=O)N1CCN(Cc2cc3nc(-c4cccc5[nH]ncc45)nc(N4CCOCC4)c3s2)CC1 [pictilisib]
Summed up: as §1

Compound in a further experiment: C[C@@H](Oc1cc(-c2cnn(C3CCNCC3)c2)cnc1N)c1c(Cl)ccc(F)c1Cl [crizotinib]
A digest of the protocol:
as §1

Compound in experiment [5]: C[C@H](C1=CC=C(C=C1)C(=O)NC2=C3C=CNC3=NC=C2)N
A digest of the protocol:
as §1

Compound in another experiment: C[C@H](Nc1ncnc2nc[nH]c12)c1cc2cccc(Cl)c2c(=O)n1-c1ccccc1 [duvelisib]
A digest of the protocol:
as §1

Compound in the next experiment: Cc1cc(Nc2cc(CN3CCOCC3)c3nc(C)c(Cc4ccc(Cl)cc4F)n3n2)n[nH]1 [gandotinib]
A digest of the protocol: as §1

Compound in another experiment: Cc1cc(Nc2cc(N3CCN(C)CC3)nc(Sc3ccc(NC(=O)C4CC4)cc3)n2)n[nH]1 [tozasertib]
A digest of the protocol:
as §1

Compound in the next experiment: Cc1ccc(-n2nc(C(C)(C)C)cc2NC(=O)Nc2ccc(OCCN3CCOCC3)c3ccccc23)cc1 [doramapimod]
Summed up:
as §1

Compound in a further experiment: Cc1ccc(NC(=O)c2ccc(CN3CC[C@H](N(C)C)C3)c(C(F)(F)F)c2)cc1Nc1nccc(-c2cncnc2)n1 [bafetinib]
Summed up:
as §1

Compound in experiment [6]: Cc1cccc(CC(=O)N2CCc3c2ccc(-c2cn(C)c4ncnc(N)c24)c3F)n1
A digest of the protocol:
as §1

The list shows a part of the results.

For the target PPP5C (UniProt P53041), the log2 fold change is inactive: -0.03 in the experiment with alvocidib; inactive: 0.019 with Tubastatin A; inactive: -0.02 in experiment [1]; inactive: -0.016 in the experiment with defactinib; inactive: 0.03 in [2]; inactive: 0.001 with encorafenib. Moreover, the log2 fold change is inactive: -0.039 in experiment [3]; inactive: 0.002 in the experiment with alisertib; inactive: 0.003 in [4]; inactive: -0.012 in the experiment with gefitinib; inactive: -0.006 with lapatinib; inactive: 0.016 with pictilisib. Also, the log2 fold change was inactive: -0.002 in the experiment with crizotinib; inactive: -0.104 in experiment [5]; inactive: 0.011 with duvelisib; inactive: 0.028 with gandotinib; inactive: -0.006 with tozasertib; inactive: 0.017 in the experiment with doramapimod. The results for the log2 fold change (in the experiment with bafetinib; in [6]) were inactive: -0.012 and inactive: 0.014, respectively.
Take PROS1 (UniProt P07225): the log2 fold change in the experiment with alvocidib is inactive: -0.033; with Tubastatin A, inactive: -0.007; in experiment [1], inactive: 0.027; with defactinib, inactive: 0.019; in experiment [2], inactive: -0.012; with encorafenib, inactive: 0.027. The log2 fold change in [3] is inactive: -0.056; with alisertib it was inactive: 0.029; in experiment [4], inactive: 0.02; in the experiment with gefitinib, inactive: -0.023; in the experiment with lapatinib, inactive: 0.007; in the experiment with pictilisib, inactive: 0.017. Moreover, the log2 fold change in the experiment with crizotinib is inactive: -0.047; in [5] it was inactive: -0.009; with duvelisib, inactive: -0.004; with gandotinib, inactive: -0.013; in the experiment with tozasertib, inactive: -0.009; with doramapimod, inactive: 0.032. The log2 fold change with bafetinib is inactive: -0.022; in experiment [6], inactive: -0.015.
For the target PRKAA1 isoform 2 (UniProt Q13131), the log2 fold change is inactive: 0.134 with alvocidib; inactive: -0.066 with Tubastatin A; inactive: 0.186 in experiment [1]; inactive: 0.166 with defactinib; inactive: -0.107 in experiment [2]; inactive: -0.035 in the experiment with encorafenib. Further, the log2 fold change in experiment [3] was inactive: -0.086; with alisertib it was inactive: 0.022; in experiment [4], inactive: 0.089; with gefitinib, inactive: -0.041; in the experiment with lapatinib, inactive: -0.037; in the experiment with pictilisib, inactive: 0.088. Moreover, the log2 fold change with crizotinib was inactive: -0.019; in [5], inactive: 0; in the experiment with duvelisib it was inactive: -0.004; in the experiment with gandotinib, inactive: 0.163; with tozasertib it was inactive: 0.165; with doramapimod, inactive: -0.01. For the same target, the log2 fold change with bafetinib was inactive: -0.036; in [6], inactive: -0.041.
Consider PRKACB isoform 2 (UniProt P22694), for which the log2 fold change with alvocidib was inactive: 0.006; with Tubastatin A, inactive: 0.003; in experiment [1], inactive: 0.011; with defactinib, inactive: 0.117; in [2] it was inactive: 0.118; with encorafenib it was inactive: -0.018. The log2 fold change in experiment [3] was inactive: -0.05; with alisertib, inactive: 0; in [4], active: 0.51; with gefitinib, inactive: 0.006; with lapatinib it was inactive: -0.063; with pictilisib, inactive: -0.042. Further, the log2 fold change is inactive: -0.018 in the experiment with crizotinib; inactive: 0.141 in experiment [5]; inactive: 0.024 in the experiment with duvelisib; inactive: -0.071 with gandotinib; inactive: -0.001 in the experiment with tozasertib; inactive: -0.023 in the experiment with doramapimod. In addition, the results for the log2 fold change (with bafetinib; in experiment [6]) were inactive: -0.04 and inactive: -0.131, respectively.
With PRMT7 (UniProt Q9NVM4), the log2 fold change with alvocidib is inactive: 0.017; with Tubastatin A, inactive: -0.069; in experiment [1], inactive: 0.024; in the experiment with defactinib, inactive: -0.047; in [2] it was inactive: 0.002; with encorafenib it was inactive: 0.012. In addition, the log2 fold change in [3] was active: 0.286; in the experiment with alisertib, inactive: -0.015; in [4], inactive: 0.007; with gefitinib it was inactive: 0; in the experiment with lapatinib it was inactive: -0.006; with pictilisib it was inactive: 0. Moreover, the log2 fold change was inactive: 0.025 with crizotinib; inactive: -0.014 in [5]; inactive: 0.035 with duvelisib; inactive: -0.045 with gandotinib; inactive: 0.039 with tozasertib; inactive: -0.025 with doramapimod. In addition, the log2 fold change in the experiment with bafetinib is inactive: -0.01; in experiment [6] it was inactive: -0.008.
Regarding PPIH (UniProt O43447), the log2 fold change with alvocidib was inactive: 0.019; with Tubastatin A it was inactive: 0.011; in experiment [1] it was inactive: 0.007; with defactinib, inactive: 0.003; in experiment [2] it was inactive: -0.057; with encorafenib, inactive: -0.035. The log2 fold change in [3] is inactive: 0.056; with alisertib, inactive: 0.022; in [4] it was inactive: 0; in the experiment with gefitinib it was inactive: -0.005; in the experiment with lapatinib, inactive: -0.005; with pictilisib, inactive: -0.012. The log2 fold change with crizotinib is inactive: -0.065; in experiment [5], inactive: -0.005; with duvelisib, inactive: -0.004; with gandotinib, inactive: -0.026; with tozasertib, inactive: 0.02; in the experiment with doramapimod, inactive: 0.029. The log2 fold change in the experiment with bafetinib was inactive: 0.026; in experiment [6], inactive: 0.022.
In the case of PPP3R1 (UniProt P63098), the log2 fold change in the experiment with alvocidib is inactive: 0.019; in the experiment with Tubastatin A it was inactive: -0.006; in experiment [1], inactive: 0.021; with defactinib it was inactive: 0.043; in experiment [2], inactive: 0.05; with encorafenib, inactive: 0.009. Besides, the log2 fold change was inactive: -0.062 in experiment [3]; inactive: -0.022 with alisertib; inactive: 0.018 in experiment [4]; inactive: 0.024 with gefitinib; inactive: 0.019 with lapatinib; inactive: -0.002 with pictilisib. Further, the log2 fold change is inactive: -0.003 with crizotinib; inactive: 0.006 in experiment [5]; inactive: 0.022 with duvelisib; inactive: 0.05 with gandotinib; inactive: 0.012 with tozasertib; inactive: -0.088 in the experiment with doramapimod. Further, the values for the log2 fold change (with bafetinib; in experiment [6]) were inactive: 0.002 and inactive: -0.119, respectively.
